Source: PMC4667195 (Scientific Reports, 2015)
Strings that start with PEPTIDE1 are HELM notation: dots part the residues, brackets hold end groups and non-standard residues.

Assay: general procedure: Fmoc solid-phase peptide synthesis; Novasyn TGR; HBTU/N,N-diisopropylethylamine
Settings: conjugation step, UV 220 nm

Substance: PEPTIDE1{[pGlu].L.Y.E.N.K.P.R.R.P.Y.I.L.K.K.[PEG12].C.[am]}|PEPTIDE2{[pGlu].L.Y.E.N.K.P.R.R.P.Y.I.L}|PEPTIDE3{[pGlu].L.Y.E.N.K.P.R.R.P.Y.I.L.K}|PEPTIDE4{[pGlu].L.Y.E.N.K.P.R.R.P.Y.I.L}|CHEM1{[SuccPr-2'-PTX]}$PEPTIDE1,PEPTIDE2,14:R3-13:R2|PEPTIDE1,PEPTIDE3,15:R3-14:R2|PEPTIDE3,PEPTIDE4,14:R3-13:R2|PEPTIDE1,CHEM1,17:R3-1:R1$$$V2.0
- final HPLC purity: more than 90%
